Results of single-concentration screens

T. brucei: 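Whole-parasite assay of Trypanosoma brucei over 72 hours; the read-out is not stated. Compounds at 30 µM. Higher reads as stronger inhibition (inferred: compounds with an IC50 in retests scored well above the rest). Values scatter widely below zero; nearly all retest evidence comes from the higher of the two concentrations used. Of about 64,000 compounds tested this way, about 940 (1.5%) reached 50% or more in at least one test.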
Toxoplasma: 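Assay of Toxoplasma gondii numbers, read through their beta-galactosidase reporter with a colour substrate. Tested at 10 µM. Higher reads as fewer parasites (inferred from which compounds were picked for retests). About 67,000 compounds were tested under these conditions; 0.38% (about 260) showed 50% or more at least once.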
Leishmania in macrophages: 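Cell assay of Leishmania donovani living inside macrophages; the read-out is not stated. Compounds at 30 µM. The record gives no direction; compounds that gave an IC50 in retests scored well above the rest, so higher reads as stronger inhibition. About 69,000 compounds were tested under these conditions; 1.5% (about 1,000) showed 50% or more at least once.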

Results are given as percent effect.
The controls that fix the scale are not given in the record; negative values are as filed.
The compounds are a random part of those screened.
A dash means the value is not listed here; it may have been measured.

compound	T. brucei	Toxoplasma	Leishmania in macrophages
COCC(C)NC(=O)c1cc(C)n(-c2cccc(OC)c2)c1C (configuration not stated)	-	0.4165	9.783
Cc1noc(C)c1CN1CCOC(CNc2cccnn2)C1 (configuration not stated)	-13.67	-21.27	-5.468
Cc1cccc(C2CCCN(C(=O)CN3CCOC3=O)C2)c1 (configuration not stated)	-37.65	3.678	37.6
Cl.O=C(C1CC1)N1CCOC2(CCNCC2)C1	-81.4	2.951	28.82
Cc1ncsc1CNC(=O)N(Cc1ccccc1)CC(C)(C)O	-17.46	1.063	7.876
[H][C@]12CC[C@]([H])(CN(C)C1)N(C(=O)c1ccc(OCC)c(OCC)c1)C2	-81.31	11.45	20.89
NC(=O)N1CCCC(C(=O)NCCc2nc(Cc3ccccc3)no2)C1 (configuration not stated)	-17.11	0.5855	5.94
Cn1nccc1-c1nc2c(cc1C(=O)O)CCN(C(=O)C1CC1)CC2.O=C(O)C(F)(F)F	-75.75	5.521	17.04
CN(Cc1ccoc1)C(=O)C1(Oc2ccc(Cl)cc2)CCNCC1	99.82	0.5325	-16.66
Cc1ccc(CN2CC(C(=O)NCC3CC3)C3(CCOCC3)C2)s1.O=C(O)C(F)(F)F (configuration not stated)	-44.99	2.23	-2.545
[H][C@]12CC[C@]([H])(CN(Cc3cccnc3)C1)N(C(=O)c1ccc(SC)cc1)C2	-13.8	3.746	15.16
NC(=O)c1cnn2c(C3CCN(CCO)CC3)ccnc12	3.252	-23.74	1.848
Cc1csc(N2CCN(C(=O)CCn3cccn3)CC2)n1	-	-3.9	10.13
CSCC(C)(O)CNC(=O)c1ccc(Br)cc1C (configuration not stated)	-28.25	2.073	-3.562
O=c1cc(CN2CCCCC2c2cccc(F)c2)[nH]c2ncnn12 (configuration not stated)	-11.64	-7.1	12.54
CCN(Cc1cnn(C)c1)C[C@H]1CC[C@@H](Cc2cccc(CN)c2)O1	-19.07	4.957	11.74
Cl.O=C(NCC1CCC2(CCNCC2)CO1)c1ccno1 (configuration not stated)	-53.76	-0.05394	-10.05
C[C@@H]1CN(C2CCN(c3ccccc3F)CC2)CC[C@]1(C)O	-44.41	72.85	62.06
CC(=O)N1CCC(c2cccc(Oc3ccccc3)n2)CC1	-	8.01	-21.19
Cc1nc(CN2CCC(N(C)Cc3nnc(C4CC4)n3C)C2)oc1C (configuration not stated)	-29.23	-20.06	4.536
CCCc1n[nH]c(C2CN(C(=O)c3ccnc(C4CC4)n3)CCO2)n1 (configuration not stated)	-	6.971	17.44
CS(=O)(=O)N1CC(c2n[nH]c3ncccc23)C1	-13.48	-29.88	16.15
CN1N=C(c2nc(Cc3cccc(Br)c3)no2)CCC1=O	-42.79	11.73	-15.27
c1nc(CCNc2nc(C3CC3)nc3c2CCNCC3)c[nH]1	-200.8	13.19	9.64
N#CCCCOc1cccc(CN2CCCC2c2ccc[nH]2)c1 (configuration not stated)	-5.229	-4.588	22.89
CC(c1cccs1)N(C)C(=O)c1cc(CN(C)Cc2ccccc2)on1 (configuration not stated)	-22.38	-3.932	-37.86
c1ccc2c(N3CCCC3Cn3cccn3)ncnc2c1 (configuration not stated)	2.728	7.216	38.82
Cc1cccn2cc(CN3CCCC(c4noc(C5CC5)n4)C3)nc12 (configuration not stated)	-18.91	0.8039	18.29
Cc1c[nH]nc1C1CN(c2ncccn2)CCO1 (configuration not stated)	8.825	-32.9	-11.22
Cc1cc(C(=O)NCC(F)(F)F)c2c(C3CCCN3)noc2n1 (configuration not stated)	-	0	14.01
CN1CCN(C(=O)CCCc2ccccn2)c2ccc(F)cc21	-1.465	3.974	-19.35
N#Cc1c(Cl)nsc1NCc1ccnc(OCC(F)(F)F)c1	-8.155	26.88	96.62
CCn1cnnc1CNC(=O)N1CCOC(c2ccccc2Cl)C1 (configuration not stated)	-32.95	5.515	-42.07
c1ccc(Cc2cccc(C3CCCN3C3CCOCC3)n2)cc1 (configuration not stated)	101	-13.06	14.15
N#Cc1ccc(SCCCO)c(F)c1	15.16	0.05348	-1.377
[H][C@@]12CCN(S(=O)(=O)c3cc(C)cc(C)c3)C[C@]1(C(=O)NC)CCO2	-24.06	1.619	33.35
Cc1ccc(-c2nc(CC(=O)NCC3CCCOC3)cs2)o1 (configuration not stated)	4.386	-5.688	14.91

Measurements from “University of Dundee, Small-Polar-MMV Screening Library” (2021), ChEMBL document CHEMBL3988442.